From patent US20200376030A1 (NANJING IASO BIOTHERAPEUTICS, published 2020)

T1: biotinylated BCMA protein (human, UniProt Q02223 1-54, biotinylated (site not stated))
T1 construct: The construct of the soluble labelled protein is not described
T1 sequence (looked up): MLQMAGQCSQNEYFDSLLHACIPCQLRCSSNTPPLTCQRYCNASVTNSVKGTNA

B1: CAR0041 (other)
chain: YPYDVPDYADIVLTQSPPSLAMSLGKRATISCRASESVTILGSHLIHWYQQKPGQPPTLLIQLASNVQTGVPARFSGSGSRTDFTLTIDPVEEDDVAVYYCLQSRTIPRTFGGGTKLEIKGSTSGSGKPGSGEGSTKGQIQLVQSGPELKKPGETVKISCKASGYTFTDYSINWVKRAPGKGLKWMGWINTETREPAYAYDFRGRFAFSLETSASTAYLQINNLKYEDTATYFCALDYSYAMDYWGQGTSVTVSSFVPVFLPAKPTTTPAPRPPTPAPTIASQPLSLRPEACRPAAGGAVHTRGLDFACDIYIWAPLAGTCGVLLLSLVITLYCNHRNRSKRSRLLHSDYMNMTPRRPGPTRKHYQPYAPPRDFAAYRSRVKFSRSADAPAYQQGQNQLYNELNLGRREEYDVLDKRRGRDPEMGGKPRRKNPQEGLYNELQKDKMAEAYSEIGMKGERRRGKGHDGLYQGLSTATKDTYDALHMQALPPR
notes: The signal peptide is left out; The T2A residues left after cleavage and the GFP are not included; also called CAR molecule encoded by the PXL0041 plasmid
B2: CAR0009 (other)
chain: DIVLTQSPPSLAMSLGKRATISCRASESVTILGSHLIHWYQQKPGQPPTLLIQLASNVQTGVPARFSGSGSRTDFTLTIDPVEEDDVAVYYCLQSRTIPRTFGGGTKLEIKGSTSGSGKPGSGEGSTKGQIQLVQSGPELKKPGETVKISCKASGYTFTDYSINWVKRAPGKGLKWMGWINTETREPAYAYDFRGRFAFSLETSASTAYLQINNLKYEDTATYFCALDYSYAMDYWGQGTSVTVSSFVPVFLPAKPTTTPAPRPPTPAPTIASQPLSLRPEACRPAAGGAVHTRGLDFACDIYIWAPLAGTCGVLLLSLVITLYCNHRNRSKRSRLLHSDYMNMTPRRPGPTRKHYQPYAPPRDFAAYRSRVKFSRSADAPAYQQGQNQLYNELNLGRREEYDVLDKRRGRDPEMGGKPRRKNPQEGLYNELQKDKMAEAYSEIGMKGERRRGKGHDGLYQGLSTATKDTYDALHMQALPPR
notes: also called CAR molecule encoded by the PXL0009 plasmid

Columns and labels:
[1] = molecular target: T1, biotinylated BCMA protein; assay: flow cytometry, gradient-diluted biotinylated BCMA and PE streptavidin on transiently transfected 293T cells
[2] = molecular target: T1, biotinylated BCMA protein; assay: flow cytometry, biotinylated BCMA and PE streptavidin on transiently transfected 293T cells

Binder	EC50 [1] [pM]	Percentage of CAR marked with 500 ng of BCMA [2] [%]
B1	300	16.1
B2	1590	18
